Measurements: publication PMC5148922
Results are given in words; binding and its absence hold for the method and conditions named. In cells and extracts the contact can be indirect. Some binding calls cover weakened binding; strength is not graded here. For some of these results: Tags and fused reporters may be left off the sequences shown.

Sequences of proteins named here, by UniProt entry; tags and fusion partners are left off.
UniProt Q9ESK9: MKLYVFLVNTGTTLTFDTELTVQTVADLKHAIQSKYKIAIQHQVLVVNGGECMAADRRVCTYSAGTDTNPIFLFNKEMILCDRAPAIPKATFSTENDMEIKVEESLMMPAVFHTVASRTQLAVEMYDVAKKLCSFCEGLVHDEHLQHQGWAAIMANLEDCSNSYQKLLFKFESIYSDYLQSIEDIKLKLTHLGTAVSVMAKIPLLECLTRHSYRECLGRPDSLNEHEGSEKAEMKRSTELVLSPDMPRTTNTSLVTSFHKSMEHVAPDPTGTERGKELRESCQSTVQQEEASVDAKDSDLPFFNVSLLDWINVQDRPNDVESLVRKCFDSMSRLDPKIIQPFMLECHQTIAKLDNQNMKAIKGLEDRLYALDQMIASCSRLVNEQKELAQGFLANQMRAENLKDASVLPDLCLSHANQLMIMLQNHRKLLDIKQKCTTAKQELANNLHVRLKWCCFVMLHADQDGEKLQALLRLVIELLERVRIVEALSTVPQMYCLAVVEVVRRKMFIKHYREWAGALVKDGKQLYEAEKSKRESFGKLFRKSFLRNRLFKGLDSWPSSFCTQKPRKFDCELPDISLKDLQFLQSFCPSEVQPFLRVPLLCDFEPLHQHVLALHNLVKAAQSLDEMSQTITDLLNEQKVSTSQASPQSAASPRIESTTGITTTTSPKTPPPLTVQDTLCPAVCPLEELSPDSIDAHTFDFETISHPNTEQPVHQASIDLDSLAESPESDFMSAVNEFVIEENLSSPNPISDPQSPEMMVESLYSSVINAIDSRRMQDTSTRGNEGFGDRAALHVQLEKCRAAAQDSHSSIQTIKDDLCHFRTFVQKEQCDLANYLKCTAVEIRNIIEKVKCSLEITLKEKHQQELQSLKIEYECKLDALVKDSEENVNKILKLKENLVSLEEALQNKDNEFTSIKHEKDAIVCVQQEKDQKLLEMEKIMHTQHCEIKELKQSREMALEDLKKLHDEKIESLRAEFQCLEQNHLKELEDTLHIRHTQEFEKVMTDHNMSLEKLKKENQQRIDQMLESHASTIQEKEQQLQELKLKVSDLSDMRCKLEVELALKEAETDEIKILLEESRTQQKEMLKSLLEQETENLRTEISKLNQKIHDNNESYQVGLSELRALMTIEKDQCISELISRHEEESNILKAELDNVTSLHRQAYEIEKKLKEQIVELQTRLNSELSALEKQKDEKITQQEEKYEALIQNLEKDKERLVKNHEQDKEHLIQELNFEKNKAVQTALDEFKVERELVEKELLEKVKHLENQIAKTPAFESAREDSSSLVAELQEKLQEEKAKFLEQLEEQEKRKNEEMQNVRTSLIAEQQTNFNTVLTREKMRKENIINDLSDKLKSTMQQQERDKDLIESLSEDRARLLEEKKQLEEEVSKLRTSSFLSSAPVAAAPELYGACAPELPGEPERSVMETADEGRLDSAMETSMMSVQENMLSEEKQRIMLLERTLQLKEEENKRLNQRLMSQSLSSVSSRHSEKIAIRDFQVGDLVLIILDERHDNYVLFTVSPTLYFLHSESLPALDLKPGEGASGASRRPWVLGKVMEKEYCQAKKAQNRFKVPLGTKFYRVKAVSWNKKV
UniProt Q6PF93: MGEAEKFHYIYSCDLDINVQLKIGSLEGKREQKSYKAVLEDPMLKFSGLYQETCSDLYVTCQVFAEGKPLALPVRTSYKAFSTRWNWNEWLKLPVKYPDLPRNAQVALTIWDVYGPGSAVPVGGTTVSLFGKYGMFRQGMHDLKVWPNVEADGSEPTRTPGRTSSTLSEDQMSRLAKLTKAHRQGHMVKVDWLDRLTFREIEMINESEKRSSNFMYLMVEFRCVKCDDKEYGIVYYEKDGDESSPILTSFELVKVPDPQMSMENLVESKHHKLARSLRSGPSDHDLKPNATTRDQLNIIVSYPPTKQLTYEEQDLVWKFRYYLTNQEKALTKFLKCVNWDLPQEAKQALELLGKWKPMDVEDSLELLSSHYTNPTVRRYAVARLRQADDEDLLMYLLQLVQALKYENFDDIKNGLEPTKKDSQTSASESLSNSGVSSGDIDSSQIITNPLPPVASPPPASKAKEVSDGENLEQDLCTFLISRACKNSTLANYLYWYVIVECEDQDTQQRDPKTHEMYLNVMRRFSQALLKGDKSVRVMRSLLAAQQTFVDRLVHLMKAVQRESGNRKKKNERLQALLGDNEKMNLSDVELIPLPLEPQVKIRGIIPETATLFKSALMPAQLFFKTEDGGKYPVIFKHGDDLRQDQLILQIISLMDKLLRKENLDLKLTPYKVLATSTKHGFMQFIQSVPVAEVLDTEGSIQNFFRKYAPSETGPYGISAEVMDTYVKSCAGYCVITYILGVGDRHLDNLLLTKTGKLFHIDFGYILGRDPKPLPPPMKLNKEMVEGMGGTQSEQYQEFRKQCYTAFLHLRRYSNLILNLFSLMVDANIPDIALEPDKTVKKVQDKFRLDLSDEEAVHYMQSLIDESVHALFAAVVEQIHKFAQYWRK

T1: ULK1 (endogenous, MEF cells) (mouse (endogenous in MEF)) (UniProt O70405)
T1 sequence: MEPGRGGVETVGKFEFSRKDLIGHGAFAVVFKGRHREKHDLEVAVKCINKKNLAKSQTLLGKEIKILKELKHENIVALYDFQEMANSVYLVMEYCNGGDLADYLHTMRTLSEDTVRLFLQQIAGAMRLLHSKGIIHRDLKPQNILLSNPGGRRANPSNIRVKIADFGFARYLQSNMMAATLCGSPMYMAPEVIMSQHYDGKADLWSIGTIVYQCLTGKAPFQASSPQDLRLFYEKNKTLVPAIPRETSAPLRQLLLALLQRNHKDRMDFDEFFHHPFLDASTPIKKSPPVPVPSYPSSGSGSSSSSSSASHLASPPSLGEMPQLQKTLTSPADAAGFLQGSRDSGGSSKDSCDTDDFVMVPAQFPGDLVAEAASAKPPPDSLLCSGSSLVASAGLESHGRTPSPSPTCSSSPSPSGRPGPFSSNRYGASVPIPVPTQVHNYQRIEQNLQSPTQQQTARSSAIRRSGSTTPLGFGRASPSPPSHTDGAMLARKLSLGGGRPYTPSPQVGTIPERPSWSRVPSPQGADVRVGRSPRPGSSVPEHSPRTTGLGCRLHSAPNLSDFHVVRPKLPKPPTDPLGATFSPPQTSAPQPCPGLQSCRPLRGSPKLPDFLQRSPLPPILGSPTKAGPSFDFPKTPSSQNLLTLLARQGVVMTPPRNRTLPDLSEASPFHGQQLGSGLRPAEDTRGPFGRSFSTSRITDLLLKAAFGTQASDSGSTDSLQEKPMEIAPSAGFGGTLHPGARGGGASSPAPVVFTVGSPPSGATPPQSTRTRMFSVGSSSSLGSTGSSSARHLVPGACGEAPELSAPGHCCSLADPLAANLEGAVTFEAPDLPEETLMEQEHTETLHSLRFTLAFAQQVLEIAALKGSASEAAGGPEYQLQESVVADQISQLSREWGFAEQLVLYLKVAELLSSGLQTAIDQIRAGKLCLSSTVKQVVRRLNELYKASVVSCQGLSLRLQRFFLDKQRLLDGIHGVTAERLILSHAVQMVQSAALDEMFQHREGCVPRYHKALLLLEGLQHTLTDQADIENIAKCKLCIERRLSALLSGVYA


Legend:
[1] = target: T1, ULK1 (endogenous, MEF cells) (mouse (endogenous in MEF)); assay: co-IP; endogenous proteins; ULK1/2 WT and DKO MEFs treated with MG132, IP with ULK1 antibody
[2] = target: ATG14 (endogenous, mouse) (mouse (endogenous in MEF and mouse cortex)) (UniProt Q8CDJ3); assay: co-IP; endogenous proteins; MEF cells treated or not with Torin 1 for 60 min; lysates subject to IP using antibody against ATG14
[3] = target: ATG14 (endogenous, mouse) (mouse (endogenous in MEF and mouse cortex)) (UniProt Q8CDJ3); assay: co-IP; endogenous proteins; 500 ug protein of post-nuclear supernatant from the cortex of Q175 mice, antibodies against ATG14 (MBL) overnight at 4 C, Dynabeads; part of the beads for western blotting
[4] = target: ATG14-GFP (UniProt Q6ZNE5); assay: co-IP; Myc-ULK1 and ATG14-GFP overexpressed in HEK cells, pulled down using antibodies against GFP; IP buffer 10 mM Tris-HCl pH 7.5, 2 mM EDTA, 100 mM NaCl, 1% NP-40

binding [1]	binding [2]	binding [4]	Molecule	further results
binds	–	–	FIP200 (endogenous, MEF cells) (from UniProt Q9ESK9 1-1588)	–
–	binds	–	NRBF2 (endogenous, MEF cells) (from UniProt Q8VCQ3 1-287)	–
–	binds	–	Vps34 (endogenous, mouse) (from UniProt Q6PF93 1-887) (enzyme)	binding [3]: binds
binds	–	–	ATG13 (endogenous, MEF cells) (protein, UniProt Q91YI1 1-516) METELSSQDRKDLDKFIKFFALKTVQVIVQARLGEKICTRSSSSPTGSDWFNLAIKDIPEVTHEAKKALSGQLPAVGRSMCVEISLKTSEGDSMELEIWCLEMNEKCDKEIKVSYTVYNRLSLLLKSLLAITRVTPAYRLSRKQGHEYVILYRIYFGEVQLNGLGEGFQTVRVGTVGTPVGTLTLSCAYRINLAFMSTRQFERTPPIMGIIIDHFVDRPYPSSSPMHPCNYRTAEDAGVAYPSVEDSQEVCTTSFSTSPPSQLSSSRLSYQPAVLGLGSADLAYPVVFTAGLNTTHAHQLMVPGKEGGVTLAPSHPTHGAQADPERLVMHMPSDGTHCAATPSSSEDTETVSNSSEGRASPHDILETIFVRKVGAFVNKPINQVTVTSLDIPFAMFAPKNLELEDADPMVNPPESPETTSPLHGSLHSDGSSGGSGGSTHDDFVMIDFKPAFSKDDILPMDLGTFYREFQNPPQLSSLSIDFGAQSMAEDLDSLPEKLAVHEKNVREFDAFVETLQ	–
–	–	binds	Myc-ULK1 wildtype (enzyme, UniProt O70405 1-1051) MEPGRGGVETVGKFEFSRKDLIGHGAFAVVFKGRHREKHDLEVAVKCINKKNLAKSQTLLGKEIKILKELKHENIVALYDFQEMANSVYLVMEYCNGGDLADYLHTMRTLSEDTVRLFLQQIAGAMRLLHSKGIIHRDLKPQNILLSNPGGRRANPSNIRVKIADFGFARYLQSNMMAATLCGSPMYMAPEVIMSQHYDGKADLWSIGTIVYQCLTGKAPFQASSPQDLRLFYEKNKTLVPAIPRETSAPLRQLLLALLQRNHKDRMDFDEFFHHPFLDASTPIKKSPPVPVPSYPSSGSGSSSSSSSASHLASPPSLGEMPQLQKTLTSPADAAGFLQGSRDSGGSSKDSCDTDDFVMVPAQFPGDLVAEAASAKPPPDSLLCSGSSLVASAGLESHGRTPSPSPTCSSSPSPSGRPGPFSSNRYGASVPIPVPTQVHNYQRIEQNLQSPTQQQTARSSAIRRSGSTTPLGFGRASPSPPSHTDGAMLARKLSLGGGRPYTPSPQVGTIPERPSWSRVPSPQGADVRVGRSPRPGSSVPEHSPRTTGLGCRLHSAPNLSDFHVVRPKLPKPPTDPLGATFSPPQTSAPQPCPGLQSCRPLRGSPKLPDFLQRSPLPPILGSPTKAGPSFDFPKTPSSQNLLTLLARQGVVMTPPRNRTLPDLSEASPFHGQQLGSGLRPAEDTRGPFGRSFSTSRITDLLLKAAFGTQASDSGSTDSLQEKPMEIAPSAGFGGTLHPGARGGGASSPAPVVFTVGSPPSGATPPQSTRTRMFSVGSSSSLGSTGSSSARHLVPGACGEAPELSAPGHCCSLADPLAANLEGAVTFEAPDLPEETLMEQEHTETLHSLRFTLAFAQQVLEIAALKGSASEAAGGPEYQLQESVVADQISQLSREWGFAEQLVLYLKVAELLSSGLQTAIDQIRAGKLCLSSTVKQVVRRLNELYKASVVSCQGLSLRLQRFFLDKQRLLDGIHGVTAERLILSHAVQMVQSAALDEMFQHREGCVPRYHKALLLLEGLQHTLTDQADIENIAKCKLCIERRLSALLSGVYA	–
–	–	binds	Myc-ULK1 kinase inhibited (K46I) mutant (enzyme, UniProt O70405 1-1051) MEPGRGGVETVGKFEFSRKDLIGHGAFAVVFKGRHREKHDLEVAVICINKKNLAKSQTLLGKEIKILKELKHENIVALYDFQEMANSVYLVMEYCNGGDLADYLHTMRTLSEDTVRLFLQQIAGAMRLLHSKGIIHRDLKPQNILLSNPGGRRANPSNIRVKIADFGFARYLQSNMMAATLCGSPMYMAPEVIMSQHYDGKADLWSIGTIVYQCLTGKAPFQASSPQDLRLFYEKNKTLVPAIPRETSAPLRQLLLALLQRNHKDRMDFDEFFHHPFLDASTPIKKSPPVPVPSYPSSGSGSSSSSSSASHLASPPSLGEMPQLQKTLTSPADAAGFLQGSRDSGGSSKDSCDTDDFVMVPAQFPGDLVAEAASAKPPPDSLLCSGSSLVASAGLESHGRTPSPSPTCSSSPSPSGRPGPFSSNRYGASVPIPVPTQVHNYQRIEQNLQSPTQQQTARSSAIRRSGSTTPLGFGRASPSPPSHTDGAMLARKLSLGGGRPYTPSPQVGTIPERPSWSRVPSPQGADVRVGRSPRPGSSVPEHSPRTTGLGCRLHSAPNLSDFHVVRPKLPKPPTDPLGATFSPPQTSAPQPCPGLQSCRPLRGSPKLPDFLQRSPLPPILGSPTKAGPSFDFPKTPSSQNLLTLLARQGVVMTPPRNRTLPDLSEASPFHGQQLGSGLRPAEDTRGPFGRSFSTSRITDLLLKAAFGTQASDSGSTDSLQEKPMEIAPSAGFGGTLHPGARGGGASSPAPVVFTVGSPPSGATPPQSTRTRMFSVGSSSSLGSTGSSSARHLVPGACGEAPELSAPGHCCSLADPLAANLEGAVTFEAPDLPEETLMEQEHTETLHSLRFTLAFAQQVLEIAALKGSASEAAGGPEYQLQESVVADQISQLSREWGFAEQLVLYLKVAELLSSGLQTAIDQIRAGKLCLSSTVKQVVRRLNELYKASVVSCQGLSLRLQRFFLDKQRLLDGIHGVTAERLILSHAVQMVQSAALDEMFQHREGCVPRYHKALLLLEGLQHTLTDQADIENIAKCKLCIERRLSALLSGVYA	–
